Experimental data: PubChem BioAssay AID1224827 (NIAID, 2016)

Aim: 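Confirm genes whose knock-down changes LPS-driven TNF promoter activity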 (follow-up of hits)
Cells: RAW264.7 G9 mouse macrophage reporter clone
Reagent: single siRNA against mouse genes, 100 nM siRNA
Time to read-out: siRNA for 2 days, then LPS about 16 h
Challenge: bacterial lipopolysaccharide (LPS), 10 ng/ml, cells fixed after overnight (about 16 h) stimulation
Measured: 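TNF promoter reporter red fluorescence in nuclei, background subtracted, normalised per plate and to non-targeting control siRNA, as z-scores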
Direction: TNF reporter z-score, mean: higher = stronger Tnf promoter reporter signal
Call rule: 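Active siRNA: replicate-mean z-score of 2 or more, or -2 or less; no calls for control wells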
In all, the deposit lists about 3,800 reagents; below is a random part of them. About 2,200 of them (57%) were called active. 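Active means a strong reporter change in either direction; calls are per siRNA, not per gene; qiagen siRNAs gave weaker effects.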 Entries without a mark were called inactive. The numbers tell different reagents against one gene apart. Further read-outs or replicates are left out here. No sequences are given here.

With knock-down of Sugp2 #1, the screen gave TNF reporter z-score, mean -3.07 (active). After knock-down of Sugp2 #2 the results were TNF reporter z-score, mean -3.08 (active). For Sugp2 #3, the values are TNF reporter z-score, mean -3.33 (active). Sugp2 #4 scored TNF reporter z-score, mean 6.5 (active). Sugp2 #5 gave TNF reporter z-score, mean 5.15 (active). Sugp2 #6 showed TNF reporter z-score, mean -2.58 (active).

For Nr0b2 #1, the values are TNF reporter z-score, mean 0.476. After knock-down of Nr0b2 #2, the screen gave TNF reporter z-score, mean -4.59 (active). Against Nr0b2 #3, the entry reads TNF reporter z-score, mean -4.86 (active). With knock-down of Nr0b2 #4, the record shows TNF reporter z-score, mean -0.121. Knock-down of Nr0b2 #5 gave: TNF reporter z-score, mean -4.23 (active). Against Nr0b2 #6, the values are TNF reporter z-score, mean -4.65 (active).

Or5d35 #1 gave TNF reporter z-score, mean -2.99 (active). Or5d35 #2 gave TNF reporter z-score, mean -4.31 (active). After knock-down of Or5d35 #3, the record shows TNF reporter z-score, mean -4.53 (active). Or5d35 #4 gave TNF reporter z-score, mean 1.17. Knock-down of Or5d35 #5 gave: TNF reporter z-score, mean 1.04. Knock-down of Or5d35 #6 resulted in: TNF reporter z-score, mean -1.97.

For Cse1l #1 the deposit lists TNF reporter z-score, mean 6.63 (active). Silencing of Cse1l #2 gave: TNF reporter z-score, mean -3.11 (active). Cse1l #3 gave TNF reporter z-score, mean -4.04 (active). With knock-down of Cse1l #4, the record shows TNF reporter z-score, mean -1.24. Cse1l #5 scored TNF reporter z-score, mean -2.46 (active). Cse1l #6 scored TNF reporter z-score, mean -4.24 (active).

Against Rxrb #1, the values are TNF reporter z-score, mean 0.151. Against Rxrb #2, the values are TNF reporter z-score, mean -3.01 (active). Rxrb #3 showed TNF reporter z-score, mean -3.37 (active). Silencing of Rxrb #4 resulted in: TNF reporter z-score, mean 1.02. Depletion of Rxrb #5 gave: TNF reporter z-score, mean 0.105. Against Rxrb #6, the values are TNF reporter z-score, mean -0.753.

After knock-down of Ptprn2 #1 the results were TNF reporter z-score, mean -3.62 (active). Ptprn2 #2 scored TNF reporter z-score, mean -3.8 (active). For Ptprn2 #3 the deposit lists TNF reporter z-score, mean -4.66 (active). Knock-down of Ptprn2 #4 gave: TNF reporter z-score, mean 1.13. Ptprn2 #5 scored TNF reporter z-score, mean 0.589. After knock-down of Ptprn2 #6 the results were TNF reporter z-score, mean -3.73 (active).

Single entries from the entries so far:
Entry of Cse1l #1 in “TNF reporter z-score, mean”: 6.63 (active)
Under “TNF reporter z-score, mean”, Sugp2 #6 is entered as -2.58 (active)
Cse1l #3, TNF reporter z-score, mean → -4.04 (active)
Ptprn2 #6, TNF reporter z-score, mean: -3.73 (active)
Result for Cse1l #2 under “TNF reporter z-score, mean”: -3.11 (active)
Entry for Cse1l #4 in “TNF reporter z-score, mean”: -1.24
